In patent US20110082119A1, “PROPHYLACTIC/AMELIORATING OR THERAPEUTIC AGENT FOR NON-ALCOHOLIC STEATOHEPATITIS” (priority 2008, published 2011):

Test system: SD rat fed with high-fat high-sucrose diet
Assay: Effectiveness in high fat diet-fed rat
Format: in vivo
Settings: HF diet 4 weeks, oral once a day, compared to the control group, EPA-E 1000 mg/kg, atorvastatin calcium hydrate 10 mg/kg
Method: 4 week old male SD rat is allowed to freely take normal diet (F-1, Funabashi Farm) or high-fat high-sucrose diet (TD88137, Harlan Teklad, hereinafter referred to as “HF diet”) for 4 weeks under 12 hour light-dark cycles at 23° C. […] The administration is conducted orally once a day. The normal group and the control group are orally administered with 5% aqueous solution of gum arabic once a day. After 4 weeks, blood is collected for determining neutrophil count and conduct biochemical tests of the plasma. […] The neutrophil count, TNFα, IL-6, and high sensitivity CPR as well as ferritin, thioredoxin, and type IV collagen also increase.

CC(C)c1c(C(=O)Nc2ccccc2)c(-c2ccccc2)c(-c2ccc(F)cc2)n1CC[C@@H](O)C[C@@H](O)CC(=O)O [atorvastatin, atorvastatin calcium hydrate]
plasma ALT: suppressed increase
plasma AST: suppressed increase
